Measured values: patent US9788547B2, “Aromatic compound and uses thereof” (SUMITOMO CHEMICAL COMPANY, LIMITED, priority 2014, dated 2017)
Some entries share one result that the patent states for a list of compounds.

System: cucumber powdery mildew fungus (Sphaerotheca fuliginea, a QoI-resistant strain)
Type: in vivo
Conditions: 500 ppm, foliar spray, cucumber (SAGAMI HANJIRO), QoI-resistant strain (cytochrome b position 143 glycine to alanine), 8 days

| Structure (SMILES) | area of lesion on treated plant relative to that on an untreated plant |
| --- | --- |
| COC(=O)Nc1cccc(C2CC2)c1COc1ccc(-c2nn(C)c(F)c2C)cc1C [Present Compound 20] | ≤ 30% |
| COC(=O)Nc1ccc(C)cc1COc1ccc(-c2nn(C)c(Cl)c2C)cc1C [Present Compound 27] | ≤ 30% |
| COC(=O)Nc1ccccc1COc1ccc(-c2nn(C)c(F)c2C)cc1C [Present Compound 21] | ≤ 30% |
| COC(=O)Nc1c(C)cccc1COc1ccc(-c2nn(C)c(F)c2C)cc1C [Present Compound 31] | ≤ 30% |
| COC(=O)Nc1c(C)cccc1COc1ccc(-c2nn(C)c(Cl)c2C)cc1C [Present Compound 24] | ≤ 30% |
| COC(=O)Nc1cccc(C)c1COc1ccc(-c2nn(C)c(C)c2C)cc1C [Present Compound 34] | ≤ 30% |
| Cc1cc(-c2nn(C)c(Cl)c2C)ccc1OCc1c(C)cccc1NC(=O)C(F)F [Present Compound 8] | ≤ 30% |
| COC(=O)Nc1ccc(C)cc1COc1ccc(-c2nn(C)c(F)c2C)cc1C [Present Compound 29] | ≤ 30% |
| COC(=O)Nc1cccc(C)c1COc1ccc(-c2nn(C)c(Cl)c2C(F)F)cc1C [Present Compound 32] | ≤ 30% |
| COC(=O)Nc1ccccc1COc1ccc(-c2nn(C)c(OC)c2Cl)cc1C [Present Compound 2] | ≤ 30% |
| COC(=O)Nc1cccc(OC)c1COc1ccc(-c2nn(C)c(C)c2C)cc1C [Present Compound 35] | ≤ 30% |
| COC(=O)Nc1cccc(C2CC2)c1COc1ccc(-c2nn(C)c(Cl)c2C)cc1C [Present Compound 19] | ≤ 30% |
| COC(=O)Nc1cccc(C)c1COc1ccc(-c2nn(C)c(Cl)c2C)cc1C [Present Compound 4] | ≤ 30% |
| COC(=O)Nc1ccccc1COc1ccc(-c2nn(C)c(Cl)c2C)cc1C [Present Compound 3] | ≤ 30% |
| CCOc1cccc(NC(=O)OC)c1COc1ccc(-c2nn(C)c(Cl)c2C)cc1C [Present Compound 18] | ≤ 30% |
| COC(=O)Nc1cccc(Cl)c1COc1ccc(-c2nn(C)c(Cl)c2C)cc1C [Present Compound 17] | ≤ 30% |
| COC(=O)Nc1cccc(F)c1COc1ccc(-c2nn(C)c(Cl)c2C)cc1C [Present Compound 16] | ≤ 30% |
| COC(=O)Nc1cccc(OC)c1COc1ccc(-c2nn(C)c(F)c2C)cc1C [Present Compound 22] | ≤ 30% |
| COC(=O)Nc1cccc(C)c1COc1ccc(-c2nn(C)c(F)c2C(F)F)cc1C [Present Compound 33] | ≤ 30% |
